Patent publication US12178842B2 (MERCK SHARP & DOHME LLC, priority 2019, dated 2024)

Assay: general procedure: Fmoc solid-phase peptide synthesis; PS Rink-Amide MBHA; HATU/DIPEA (Reagent A); DIC/Oxyma (Reagent B)
Conditions: whole synthesis, scale 0.250 mmol

Int-A (Reagent B)
crude mass: 300 mg

Int-A (Reagent A)
crude mass: 399 mg
